No constants are given. Whether binding was seen depends on the method and setting. Binding seen in cells or lysates may run through a third protein. Binding can be weak; no strength is given. Where a sequence is shown, tags or fusion partners need not be part of it.
How the values were obtained:
Myc-ARD1-WT = biological target: T1, Myc-ARD1-WT (UniProt P41227); test: co-IP; AR-WT and Myc-ARD1-WT transfected in Cos-7 cells, without R1881; immunoprecipitated with anti-Myc antibody
T1 sequence: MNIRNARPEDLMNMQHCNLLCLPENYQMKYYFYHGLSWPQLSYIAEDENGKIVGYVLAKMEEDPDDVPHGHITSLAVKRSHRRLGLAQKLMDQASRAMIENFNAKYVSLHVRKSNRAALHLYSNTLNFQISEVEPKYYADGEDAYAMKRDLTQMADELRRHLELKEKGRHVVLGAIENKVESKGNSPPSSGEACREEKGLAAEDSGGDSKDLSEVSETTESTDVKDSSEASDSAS

Flag-ARD1 = biological target: T2, Flag-ARD1 (UniProt P41227); test: co-IP; sequential immunoprecipitation from 293T cells co-transfected with His-AR and Flag-ARD1, immunoblotting with antibodies as indicated; lysis/wash buffer 50 mM Tris-HCl pH 7.4, 150 mM NaCl, 1 mM EDTA, 1% Triton-X
T2 sequence: T1 sequence

| Substance | binding (Myc-ARD1-WT) | binding (Flag-ARD1) |
| --- | --- | --- |
| wild-type androgen receptor (AR-WT) | binds | – |
| His-AR (receptor) | – | binds |
